Assay [1] deals with T1, High-mobility group AT-hook protein 2 (HMGA2), endogenous, mouse (mouse (endogenous in E11.5 neocortex)) (UniProt P52927).
T1 sequence: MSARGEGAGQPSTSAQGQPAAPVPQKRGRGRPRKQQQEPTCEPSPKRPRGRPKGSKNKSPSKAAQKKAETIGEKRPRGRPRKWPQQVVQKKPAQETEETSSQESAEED
As to the kind of experiment: affinity purification with mass spectrometry; endogenous HMGA2 precipitated with antibodies to HMGA2 (Cell Signaling #8179) cross-linked to protein A-Dynabeads from the solubilised chromatin fraction (400 mM KCl buffer) of E11.5 mouse neocortex cells, 4 °C; control rabbit IgG.

The chains behind the UniProt entries cited, without tags or fusion partners.
UniProt Q5PSV9: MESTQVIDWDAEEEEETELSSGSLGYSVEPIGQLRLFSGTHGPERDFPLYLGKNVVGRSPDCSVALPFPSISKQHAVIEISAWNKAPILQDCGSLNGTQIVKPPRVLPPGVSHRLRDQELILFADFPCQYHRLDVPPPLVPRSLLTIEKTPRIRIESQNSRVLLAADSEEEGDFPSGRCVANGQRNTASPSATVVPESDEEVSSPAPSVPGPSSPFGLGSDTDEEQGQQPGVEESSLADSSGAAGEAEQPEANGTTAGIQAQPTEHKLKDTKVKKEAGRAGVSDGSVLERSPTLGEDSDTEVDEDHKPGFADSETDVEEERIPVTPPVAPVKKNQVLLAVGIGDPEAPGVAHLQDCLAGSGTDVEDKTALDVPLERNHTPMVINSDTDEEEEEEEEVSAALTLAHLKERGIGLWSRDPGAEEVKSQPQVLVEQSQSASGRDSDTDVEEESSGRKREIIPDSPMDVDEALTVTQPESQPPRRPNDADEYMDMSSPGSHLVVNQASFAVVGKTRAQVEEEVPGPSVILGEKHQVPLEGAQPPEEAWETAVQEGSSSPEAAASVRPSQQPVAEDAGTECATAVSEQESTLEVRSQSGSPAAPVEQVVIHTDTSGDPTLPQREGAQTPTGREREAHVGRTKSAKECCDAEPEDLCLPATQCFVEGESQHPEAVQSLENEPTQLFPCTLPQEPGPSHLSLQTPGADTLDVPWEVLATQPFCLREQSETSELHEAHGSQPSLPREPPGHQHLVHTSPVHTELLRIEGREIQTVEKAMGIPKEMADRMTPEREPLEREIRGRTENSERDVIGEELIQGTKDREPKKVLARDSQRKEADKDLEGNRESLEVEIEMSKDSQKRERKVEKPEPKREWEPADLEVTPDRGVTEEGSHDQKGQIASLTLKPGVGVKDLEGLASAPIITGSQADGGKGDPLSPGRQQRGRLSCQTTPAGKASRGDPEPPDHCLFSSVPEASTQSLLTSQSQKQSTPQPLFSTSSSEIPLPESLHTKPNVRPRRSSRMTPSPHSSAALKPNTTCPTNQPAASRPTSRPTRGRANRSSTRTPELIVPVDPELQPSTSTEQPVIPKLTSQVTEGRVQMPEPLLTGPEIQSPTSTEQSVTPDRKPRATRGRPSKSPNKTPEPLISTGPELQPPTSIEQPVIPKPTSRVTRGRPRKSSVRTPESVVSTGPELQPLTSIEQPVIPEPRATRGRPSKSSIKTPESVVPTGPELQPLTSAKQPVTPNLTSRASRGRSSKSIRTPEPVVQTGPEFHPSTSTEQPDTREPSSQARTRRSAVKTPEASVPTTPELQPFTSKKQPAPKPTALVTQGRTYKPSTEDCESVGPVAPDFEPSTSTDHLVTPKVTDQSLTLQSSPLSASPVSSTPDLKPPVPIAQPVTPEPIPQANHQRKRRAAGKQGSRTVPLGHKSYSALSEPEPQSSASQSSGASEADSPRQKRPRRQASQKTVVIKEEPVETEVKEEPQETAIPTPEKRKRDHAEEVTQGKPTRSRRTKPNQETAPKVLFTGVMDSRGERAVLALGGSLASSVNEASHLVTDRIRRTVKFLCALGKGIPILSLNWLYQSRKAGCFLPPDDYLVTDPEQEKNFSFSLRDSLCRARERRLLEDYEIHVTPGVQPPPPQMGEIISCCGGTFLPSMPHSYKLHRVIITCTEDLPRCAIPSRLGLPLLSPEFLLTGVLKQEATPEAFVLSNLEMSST

The target in assay [2] is T2, mouse HMGA2 overexpressed in Neuro2A cells (mouse) (UniProt P52927).
T2 sequence: T1 sequence
As to the kind of experiment: affinity purification with mass spectrometry; IP-MS of HMGA2 from the chromatin fraction of Neuro2A cells overexpressing mouse HMGA2, collected 1 day after transfection.

Data on one substance can be found in publication PMC10570362.

These are yes or no findings as the source states them, for the method shown. Binding seen in cells or lysates may run through a third protein. A yes stands for co-enrichment or nearness to the bait. Other partners may have been found.

For the substance “mediator of DNA damage checkpoint protein 1 (MDC1), mouse, endogenous (from UniProt Q5PSV9 1-1707)”, the binding entry in assay [1] and in assay [2] was “binds” throughout.
